Measurements from “University of Dundee, Small-Polar-MMV Screening Library” (2021), ChEMBL document CHEMBL3988442.

Results are given as percent effect. The controls that fix the scale are not given in the record; negative values are as filed. The compounds are a random part of those screened.

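Assay of Toxoplasma gondii numbers, read through their beta-galactosidase reporter with a colour substrate. Tested at 50 µM. Higher reads as fewer parasites (inferred from which compounds were picked for retests). Of about 18,000 compounds tested this way, about 170 (0.94%) reached 50% or more in at least one test.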

{"structure": "CC1c2ccsc2CCN1CCC(=O)NC(N)=O", "stereo": "stereo unspecified", "percent effect": -3.706}
{"structure": "Nc1cc(-c2ccc3c(c2)OCCO3)n[nH]1", "percent effect": 20.56}
{"structure": "CCOC(=O)N1CCC(C(C)N)CC1", "stereo": "stereo unspecified", "percent effect": 7.116}
{"structure": "C[C@H](N)c1ncccc1F", "percent effect": -3.485}
{"structure": "Nc1ccn(CCN2CCOCC2)n1", "percent effect": -7.025}
{"structure": "CC(=O)N1CCC(Cc2ccc(C(N)=O)cc2)CC1", "percent effect": -15.01}
{"structure": "Cc1ccccc1Oc1ccnc(CN)c1", "percent effect": 5.884}
{"structure": "CC(CNC(=O)NC1CCCC1)N1CCOCC1", "stereo": "stereo unspecified", "percent effect": -7.315}
{"structure": "N#Cc1cc(CN2CCCC3(C2)OCCO3)ccc1F", "percent effect": -23.4}
{"structure": "COCC(C)Nc1cccc(F)c1C#N", "stereo": "stereo unspecified", "percent effect": 18.53}
{"structure": "CN1C(=O)CCN(S(C)(=O)=O)c2ccccc21", "percent effect": -0.3248}
{"structure": "CC1CN(CCC(=O)NC(N)=O)CCO1", "stereo": "stereo unspecified", "percent effect": -17.95}
{"structure": "COC(=O)NCC(=O)N1CCCCc2ccccc21", "percent effect": -5.037}
{"structure": "c1cc2nnnn2nc1N1CCCCC1", "percent effect": 0.3763}
{"structure": "CCOCC(=O)Nc1ccc(S(C)(=O)=O)cc1C", "percent effect": 0.7009}
{"structure": "CCn1ccnc1CN(C)CC1CCN(CCO)CC1", "percent effect": -1.873}
{"structure": "CNCC1(CO)CC1", "percent effect": -2.36}
{"structure": "CNCCCNC(=O)c1coc(Br)c1", "percent effect": -1.778}
{"structure": "Cc1ccc(S(=O)(=O)NC2CC2)cc1C(=O)N(C)C", "percent effect": 1.974}
{"structure": "CNCC(C)CNC(=O)CCc1cccc(F)c1", "stereo": "stereo unspecified", "percent effect": 22.85}
{"structure": "CC(=O)N1CC[C@@H](NC(=O)c2cccc(O)c2)[C@H](O)C1", "percent effect": 14.96}
{"structure": "CC(C)c1ccc(CN)cn1", "percent effect": -20.31}
{"structure": "Nc1cncc(-c2nccs2)c1", "percent effect": -8.493}
{"structure": "COCC(=O)N1CCN(CCC(=O)OC(C)(C)C)CC1", "percent effect": 37.46}
{"structure": "Cc1nc[nH]c1C(=O)N(C)CC1CCN(CC(C)C)C1", "stereo": "stereo unspecified", "percent effect": -11.67}
{"structure": "CNC(=O)c1ccc(C)c(NC(=O)C2=CSCCO2)c1", "percent effect": 6.742}
{"structure": "CC(C)c1nnsc1CNC(=O)CCc1csc(N)n1", "percent effect": -4.031}
{"structure": "COc1ccc(OC)c(NC(=O)COCC(F)(F)F)c1", "percent effect": 9.413}

Some entries from above, unchanged:

| structure | percent effect |
|---|---|
| `CNCC1(CO)CC1` | -2.36 |
| `CNC(=O)c1ccc(C)c(NC(=O)C2=CSCCO2)c1` | 6.742 |